Test results reported in PubChem BioAssay AID1508600 (Functional Genomics Laboratory (NCATS/FGL), 2020).
Screen size: about 53,000 sequences; about 3,700 (7%) were called active.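 The calls were made as follows: active = gene knockdowns whose robust z-score for IL-1 alpha signal is at least 2 or at most -2, so actives lie on both sides; inactive = the rest.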 Some of the results follow.

Assay: Components of the Cytosolic LPS Sensing Pathway: Gene Identification via Genome-wide siRNA Screen;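 also: robust z of the log signal after scaling to non-targeting control siRNA wells of the plate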
Details: RAW264.7 macrophages, IL-1a HTRF, actives lie on both sides, screened at 100 nM (by protocol), cells primed 5 h with Pam3CSK4 first
Procedure, shortened: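 Using IL-1a HTRF as read-out, the screen measured release from RAW264.7 cells after 48h siRNA knockdown (100 nM), 5 h Pam3CSK4 priming and 24 h cytosolic LipidA. Values were expressed relative to negative-control wells as robust z-scores.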

Row | Sequence | z-score
1 | GGUGAUCAAUACAAGCCGATT against Art1 | inactive: -0.534
2 | GCUAAUGUCCGGUUUGUUGTT against Recql5 | inactive: -0.75
3 | CGGAAAGGCGAGGGAUACUTT against Fkbp5 | inactive: -1.63
4 | CCAAGCAUAUGUGGUUGUUTT against Gpbp1l1 | active: -2.01
5 | GCAGUGACCUCUGGUCAUUTT against Abcc1 | inactive: -0.133
6 | GGGCUCUACUAUUUUUUUUTT against Polh | active: -2.68
7 | GGUACAGCUGGUUCUCUUUTT against Olfr1018 | inactive: 1.2
8 | GGACAACAGUGGAAGGCUCTT against Serpinb1a | inactive: 0.841
9 | GCCUCUUCAUUUAGCUAAUTT against Klhl10 | inactive: 0.85
10 | GGAAAAAGAAAAAGAAGGUTT against Timeless | inactive: -1.73
11 | CCGUGAACCUAAACCUGUGTT against Rhog | inactive: -0.872
12 | GCUGGUGUCUUAUGGCCUATT against 9130008F23Rik | active: -2.02
13 | GGCAGUAGCCAGAAGGCAUTT against Rnf215 | inactive: 0.373
14 | GCACCUAUUCAAUGAGAAGTT against Chrnd | inactive: 0.614
15 | GGCUAGAAACUUGAGUUUCTT against Prnp | inactive: 0.831
16 | GUUGUCCUCUUUGUCAUCATT against Olfr502 | active: -3.63
17 | GGUGAAAUAUGUGUAUCAGTT against Psmb9 | inactive: 1.39
18 | CGAAGCUCAACAGAUUCCUTT against Prl7a2 | inactive: -0.278
19 | GCGAAAGACAGACACGACCTT against Slc4a4 | inactive: 0.377
20 | GGAACCAAAGCGAAUUUUATT against Hoxa11 | inactive: 0.0373
21 | GGAGUGACAAAAAUGUCGGTT against Snx13 | inactive: -0.56
22 | CCUACAAGAACGAAGAUUUTT against Pla2g4d | inactive: -1.67
23 | GGAGUUCAAGAUCUGGAAGTT against 2410004B18Rik | inactive: -0.0896
24 | GGCUUCCUCAAGAACUUUCTT against Acly | inactive: 0.0643
25 | GCGAUGCUGGCAAGUAUGUTT against Robo1 | inactive: 0.45
26 | GCCAAUGAAAACCUUUUGCTT against Parp9 | inactive: -0.736
27 | GGUCAUUCGCUUCGAAAAGTT against C1qb | active: -2.05
28 | CCACAUACAUUUCACAGGGTT against Kdf1 | inactive: -0.806
29 | GACCAGAAAUUUAAGUGCUTT against Dnajc30 | inactive: 1.5

Exported in CSV form: part of the list above
Row,Sequence,z-score
10,GGAAAAAGAAAAAGAAGGUTT against Timeless,inactive: -1.73
11,CCGUGAACCUAAACCUGUGTT against Rhog,inactive: -0.872
12,GCUGGUGUCUUAUGGCCUATT against 9130008F23Rik,active: -2.02
13,GGCAGUAGCCAGAAGGCAUTT against Rnf215,inactive: 0.373
14,GCACCUAUUCAAUGAGAAGTT against Chrnd,inactive: 0.614
